The supplement of paper PMC6078165

Tested on: BT20
Assay: relative JC-1 red fluorescence (viability) vs pre-drug, coculture with fibroblast (fraction); higher = more viable cancer cells
Method: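 JC-1 labelled TNBC cells cocultured 1:1 (1,500 cells each) with CellTrace Violet stained primary or stromal fibroblasts in 384-well plates in FluoroBrite medium, treated with one of 42 anticancer drugs at 0.1, 1, 10 or 100 uM. JC-1 red fluorescence (mitochondrial integrity in cancer cells only) was read by plate reader every 8 h for 72 h. Values are normalised to each well's pre-drug value. The stock of one drug was tenfold lower, so its dose labels may be too high.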

CCCCCOC(=O)Nc1nc(=O)n([C@@H]2O[C@H](C)[C@@H](O)[C@H]2O)cc1F [Capecitabine]
relative JC-1 red fluorescence
Details	8 h	16 h	24 h	32 h	40 h	48 h	56 h	64 h	72 h
0.1 µM, coculture fibroblast: C12385	0.88	0.805	0.748	0.67	0.606	0.57	0.535	0.517	0.4994
0.1 µM, coculture fibroblast: H6013	0.943	0.9031	0.869	0.824	0.777	0.758	0.746	0.713	0.698
0.1 µM, coculture fibroblast: H6019	0.854	0.788	0.7548	0.697	0.658	0.635	0.596	0.558	0.538
0.1 µM, coculture fibroblast: H6076	0.941	0.901	0.802	0.748	0.72	0.688	0.68	0.666	0.646
0.1 µM, coculture fibroblast: H6231	0.808	0.878	0.788	0.703	0.659	0.611	0.575	0.552	0.528
0.1 µM, coculture fibroblast: HADF	0.95	0.911	0.832	0.8032	0.765	0.712	0.697	0.672	0.6318
0.1 µM, coculture fibroblast: HCFa	0.934	0.894	0.875	0.817	0.771	0.725	0.703	0.675	0.641
0.1 µM, coculture fibroblast: HCPF	0.863	0.909	0.825	0.758	0.708	0.648	0.6035	0.588	0.56
0.1 µM, coculture fibroblast: HHSteC	0.9113	0.885	0.864	0.782	0.739	0.7	0.672	0.637	0.613
0.1 µM, coculture fibroblast: HMF	0.95	0.857	0.754	0.696	0.654	0.6061	0.582	0.556	0.541
0.1 µM, coculture fibroblast: HPFa	0.9586	0.8612	0.837	0.7444	0.697	0.645	0.602	0.564	0.504
0.1 µM, coculture fibroblast: HUF	0.9092	0.7909	0.759	0.668	0.622	0.581	0.546	0.53	0.509
0.1 µM, coculture fibroblast: Hs5	0.764	0.9601	0.864	0.791	0.729	0.679	0.629	0.592	0.564
0.1 µM, coculture fibroblast: Hs27A	0.787	0.94	0.8912	0.8911	0.833	0.80472	0.7754	0.7482	0.692
0.1 µM, coculture fibroblast: Hs343T	0.851	0.9021	0.7846	0.7334	0.668	0.6188	0.585	0.558	0.524
0.1 µM, coculture fibroblast: WS1	0.832	0.75	0.679	0.599	0.54	0.5	0.463	0.438	0.421
1 µM, coculture fibroblast: C12385	0.934	0.8414	0.804	0.724	0.673	0.647	0.621	0.608	0.596
1 µM, coculture fibroblast: H6013	0.903	0.873	0.901	0.865	0.855	0.845	0.854	0.841	0.84
1 µM, coculture fibroblast: H6019	0.866	0.791	0.764	0.695	0.652	0.637	0.601	0.578	0.56
1 µM, coculture fibroblast: H6076	0.852	0.859	0.778	0.743	0.725	0.695	0.694	0.696	0.686
1 µM, coculture fibroblast: H6231	0.774	0.938	0.7837	0.718	0.666	0.6172	0.582	0.559	0.528
1 µM, coculture fibroblast: HADF	0.895	0.8441	0.8072	0.7471	0.718	0.674	0.6612	0.645	0.62
1 µM, coculture fibroblast: HCFa	0.903	0.822	0.799	0.729	0.681	0.644	0.616	0.586	0.548
1 µM, coculture fibroblast: HCPF	0.897	0.873	0.806	0.749	0.704	0.663	0.621	0.608	0.576
1 µM, coculture fibroblast: HHSteC	0.854	0.904	0.862	0.726	0.761	0.779	0.742	0.661	0.717
1 µM, coculture fibroblast: HMF	0.935	0.8125	0.7162	0.6669	0.629	0.586	0.565	0.546	0.522
1 µM, coculture fibroblast: HPFa	0.939	0.836	0.8654	0.7801	0.7507	0.703	0.691	0.666	0.618
1 µM, coculture fibroblast: HUF	0.923	0.797	0.758	0.678	0.622	0.574	0.549	0.527	0.515
1 µM, coculture fibroblast: Hs5	0.945	0.864	0.7894	0.7367	0.6923	0.6515	0.618	0.59	0.5606
1 µM, coculture fibroblast: Hs27A	0.71	0.7603	0.906	0.92255	0.897	0.804	0.933	0.907	0.857
1 µM, coculture fibroblast: Hs343T	0.975	0.8286	0.7012	0.6323	0.57	0.5201	0.469	0.4412	0.413
1 µM, coculture fibroblast: WS1	0.876	0.76	0.695	0.609	0.552	0.516	0.483	0.459	0.452

Values are relative to the signal before dosing, not to a vehicle control; the signal also falls without drug.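 Fibroblast labels denote human fibroblasts, mainly primary ones from uterus (C12385, HUF), lung (H6013), bone (Hs27A), adrenal (HADF) and skin (WS1), plus mammary HMF and breast cancer-associated Hs343T. Cancer cells are basal-like or mesenchymal-like triple-negative breast cancer lines. A hit is a response shift exceeding 3x replicate standard deviation. The tissue of the other fibroblasts is not given here.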
